Measured values reported in patent US6656972B2, “Control of pain with endogenous cannabinoids” (Neurosciences Research Foundation, Inc., priority 1998, dated 2003).

Assay: Isotope dilution GC/MS of endogenous anandamide and PEA in rat paw skin
Conditions: n=8, means±s.e.m.

Row | Structure (SMILES) | endogenous amount in rat paw skin
1 | CCCCCCCCCCCCCCCC(=O)NCCO [PEA, palmitylethanolamide] | 692±119 pmol per g of tissue
2 | CCCCC/C=C\C/C=C\C/C=C\C/C=C\CCCC(=O)NCCO [anandamide, arachidonylethanolamide] | 49±9 pmol per g of tissue
